According to PubChem BioAssay AID2551 (National Center for Advancing Translational Sciences (NCATS), 2010):
Among all 310,000 compounds or so, about 17,000 (5.5%) were called active. Inconclusive means that the source gave no clear call. Such entries were picked first, then a sample of the others. The call rests on the fitted dose curve; in most records, active means well fitted inhibition curve with a large enough effect; inconclusive means small, poorly fitted or top-dose-only effect, or effect the other way; inactive means no such curve, though single readings can be large or run the other way. Where the call is inconclusive, the potency comes from a doubtful curve fit.
Further: nearly all actives have a fitted effect of over 60% in size.
On the % scale 0 is the no-effect control and ±100 the full control effect; potency means the concentration at half of the fitted maximal effect.

Protein sequences, listed by entry. Tags and fused reporters are not part of them. Lines headed by an entry give the natural chain unless they say otherwise; changes in a name come on top.
UniProt P51450: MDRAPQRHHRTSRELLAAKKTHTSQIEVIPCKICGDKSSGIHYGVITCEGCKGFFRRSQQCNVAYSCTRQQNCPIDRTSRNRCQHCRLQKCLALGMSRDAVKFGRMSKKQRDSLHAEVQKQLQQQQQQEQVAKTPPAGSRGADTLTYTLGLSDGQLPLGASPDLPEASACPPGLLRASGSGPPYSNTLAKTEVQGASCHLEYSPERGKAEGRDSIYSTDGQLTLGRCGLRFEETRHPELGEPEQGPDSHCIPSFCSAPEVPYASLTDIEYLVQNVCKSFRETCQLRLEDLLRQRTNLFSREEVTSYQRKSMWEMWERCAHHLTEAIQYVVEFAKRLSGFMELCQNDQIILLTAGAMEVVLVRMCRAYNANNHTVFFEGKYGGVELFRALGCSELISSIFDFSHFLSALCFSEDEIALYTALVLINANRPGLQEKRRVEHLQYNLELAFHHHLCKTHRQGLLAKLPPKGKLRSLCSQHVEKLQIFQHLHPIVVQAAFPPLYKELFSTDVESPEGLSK

What follows are molecules tested against Nuclear receptor ROR-gamma (Mus musculus) (UniProt P51450) (assay: qHTS for inhibitors of ROR gamma transcriptional activity). Settings: Drosophila S2 Gal4-RORgamma UAS-luciferase reporter, 20 h; activity change, negative = inhibition: at 53.6 µM (top of the series).
Outline: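 ROR gamma transcriptional activity was tracked as Gal4-UAS luciferase output in stably transfected Drosophila Schneider cells, with compound added 1 hr before 700 uM copper sulfate induction and a 20 hr ambient-temperature incubation.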
`CCOC(=O)CNC(=O)Cn1cnc2c(oc3ccccc32)c1=O` was tested, and the Potency was “inactive”.
`CC(OC(=O)c1ccco1)C(=O)NC1CCCCC1` (stereo not given) was tested, and the Potency was inconclusive: 35.5 µM [inhibitor, single point].
`c1ccc(CCSc2ncnc3nc[nH]c23)cc1` was tested, and the Potency was inconclusive: 15.8 µM [activator, partial curve].
`CCn1cc(C(=O)NCCC(C)C)c(=O)c2cc(S(=O)(=O)N3CCCCC3)ccc21` was tested, and the Potency was “inactive”.
In the case of `O=C(N/N=C\c1ccccc1O)c1ccccc1O`, the Potency is reported as active: 1 µM.
In the case of `CS(=O)(=O)c1cc([N+](=O)[O-])c(Sc2nc3ccccc3[nH]2)c([N+](=O)[O-])c1`, the Potency is reported as active: 2.51 µM.
In the case of `O=C(Nc1ccccc1)N1CCCC(c2nc(-c3cccs3)no2)C1` (stereo not given), the Potency is reported as inconclusive: 11.2 µM [activator, single point].
`CC1=NN(C(N)=S)C(=O)C1N=Nc1ccccc1Cl` (stereo not given) was tested, and the Potency was active: 0.631 µM.
For `CCOC(=O)Nc1ccc2c(c1)N(C(=O)CCCl)c1ccccc1[S@]2=O`, the Potency was inconclusive: 0.1 µM [activator, single point].
In the case of `Cc1ccc2nc3c(cc2c1)CN(Cc1ccco1)C(=NCC1CCCO1)S3` (stereo not given), the Potency is reported as inconclusive: 4.47 µM [inhibitor, partial curve, poor fit].
For `CC(CN1CCOCC1)OC(=O)c1ccc(C(C)(C)C)cc1` (stereo not given), the Potency was inconclusive: 31.6 µM [inhibitor, single point].
With `CC1CCCN(CCC(=O)c2ccc(Br)cc2)C1` (stereo not given) the Potency was inconclusive: 1.58 µM [activator, partial curve].
`CCN(CC)C(=O)CSc1nnc(-c2cc(-c3ccc(Cl)cc3)nc3ccccc23)o1` was tested, and the Potency was “inactive”.
In the case of `O=C(/C=C/c1cccc([N+](=O)[O-])c1)n1cnc2ccccc21`, the Potency is reported as active: 11.2 µM.
For `COc1ccc(-c2cc(C(=O)N3CCN(S(=O)(=O)c4ccc(C)cc4)CC3)[nH]n2)cc1`, the Potency was inconclusive: 12.6 µM [activator, single point].
With `O=C1c2ccccc2-c2nnc(-c3ccccc3)cc21` the Potency was active: 8.91 µM.
With `CCOC(=O)Cc1c(C)nc2c(-c3ccc(Cl)cc3)c[nH]n2c1=O` the Potency was active: 5.62 µM.
With `CC(/C=C1\SC(=S)N(C(C(=O)O)C(C)C)C1=O)=C\c1ccccc1` (stereo not given) the Potency was “inactive”.
In the case of `O=C(/C=C/c1ccccc1)Nc1ncn[nH]1`, the Potency is reported as active: 14.1 µM.
For `COC(=O)C1=C(C)N(CC2CC2)C(=O)N[C@H]1c1ccc(Br)cc1`, the Potency was inconclusive: 35.5 µM [activator, single point].
`CC(C)(N)C(=O)N[C@@H](Cc1cnc[nH]1)C(=O)N[C@H](Cc1ccc2ccccc2c1)C(=O)N[C@H](Cc1ccccc1)C(=O)N[C@@H](CCCCN)C(N)=O` was tested, and the Potency was “inactive”.
With `CS(=O)(=O)Nc1cccc(-c2nc(NCc3ccccc3)c3ccccc3n2)c1` the Potency was “inactive”.
In the case of `Cc1cccc(NC(=S)NNC(=O)c2nn(C)cc2Cl)c1`, the Potency is reported as inconclusive: 1.41 µM [inhibitor, partial curve].
With `Cn1c(=O)c2c(nc(CN3CCc4ccccc4C3)n2CCCO)n(C)c1=O` the Potency was “inactive”.
In the case of `Cc1ccc(-c2[nH]ncc2/C=N/n2c(COc3ccccc3)nc3ccccc3c2=O)cc1`, the Potency is reported as inconclusive: 35.5 µM [inhibitor, single point].
With `Nc1nonc1-n1nnc(C(=O)N/N=C/c2cccs2)c1CSc1ccccc1` the Potency was inconclusive: 4.47 µM [inhibitor, full curve].
In the case of `CC(C)Oc1ccccc1OCCCOc1cccc2cccnc12`, the Potency is reported as active: 14.1 µM.
For `O=C(Nc1cc(C(F)(F)F)ccc1Cl)C1CCN(c2nnc(-n3cccc3)s2)CC1`, the Potency was “inactive”.
For `CCOC(=O)N1CCC(Nc2c(NCCCOC)c(=O)c2=O)CC1`, the Potency was inconclusive: 3.16 µM [activator, full curve].
For `CCc1ccc(NC(=O)CC2C(=O)NCCN2C(=S)Nc2ccccc2)cc1` (stereo not given), the Potency was inconclusive: 8.91 µM [activator, single point].
With `O=C(NC(=S)Nc1ccccn1)c1ccccc1` the Potency was inconclusive: 4.47 µM [inhibitor, single point].
For `COc1cccc(/C=C/c2ccc3cccc(O)c3n2)c1`, the Potency was active: 3.55 µM.
For `CC(C)c1ccc(CCNC(=O)c2ccc([N+](=O)[O-])cc2)cc1`, the Potency was “inactive”.
With `O=S(=O)(Nc1cccc(-c2nc3cccnc3s2)c1)c1ccc2c(c1)OCCO2` the Potency was inconclusive: 15.8 µM [activator, single point].
`CCN(CC)C(=O)c1ccc(Oc2ccc([N+](=O)[O-])cc2Cl)cc1` was tested, and the Potency was “inactive”.
In the case of `CCN(C(=O)COC(=O)c1cc(-c2ccc(C)o2)nc2ccccc12)C1CCS(=O)(=O)C1` (stereo not given), the Potency is reported as inconclusive: 20 µM [inhibitor, single point].
With `C/C(CC(=O)N1CCN(C=O)CC1)=N\NC(=O)c1ccc([N+](=O)[O-])cc1` the Potency was active: 8.91 µM.
In the case of `COc1ccccc1NC(=S)NC1CCCCCCCCCCC1`, the Potency is reported as active: 2.82 µM.
With `CCN(CC)CCC(=O)N1c2ccccc2CCc2ccc(NC(=O)OC(C)C)cc21` the Potency was inconclusive: 1.12 µM [inhibitor, partial curve].
With `CSc1ncccc1C(=O)OCC(=O)NC(=O)NCCC(C)C` the Potency was inconclusive: 10 µM [activator, partial curve].
In the case of `COc1ccccc1/C=C/C(=O)NCC(=O)N/N=C/c1cc(Br)ccc1OC`, the Potency is reported as active: 12.6 µM.
In the case of `CCC1=Nc2cc(C(=O)NCc3ccco3)ccc2Sc2ccc(C)cc21`, the activity change, negative = inhibition is reported as inactive: 13.8% [at 10 µM].
For `CCOC(=O)Cn1nnc2c(sc3nc4c(c(-c5ccc(Cl)cc5)c32)CCC4)c1=O`, the Potency was inconclusive: 28.2 µM [inhibitor, single point].
With `Cc1ccc(-n2c(C)c3c(C)nnc(C)c3c2C)cc1C` the Potency was inconclusive: 11.2 µM [inhibitor, single point].
In the case of `CCCc1nc2ccc(NC(C)=O)cc2c(=O)n1Cc1ccc(Cl)cc1`, the Potency is reported as inconclusive: 12.6 µM [activator, partial curve].
`COc1ccc2c(c1)CCc1c(C(=O)N3CCCc4ccccc43)noc1-2` was tested, and the Potency was inconclusive: 35.5 µM [activator, single point].
With `O=c1onc2cnc3ccccc3n12` the Potency was “inactive”.
`CC(=O)Nc1ccc(S(=O)(=O)N2CCCN(S(=O)(=O)c3ccc(C)cc3)CC2)cc1` was tested, and the Potency was inconclusive: 11.2 µM [activator, single point].
For `CC(=O)N(Cc1ccc(F)cc1)C1=C(NCc2ccccc2)C(=O)c2ccccc2C1=O`, the Potency was active: 12.6 µM.
With `COc1cc(-c2nc(-c3ccc(Br)o3)no2)cc(OC)c1OC` the Potency was “inactive”.
`Cc1cc(C)cc(NC(=O)Nc2cnccn2)c1` was tested, and the Potency was inconclusive: 31.6 µM [activator, single point].
For `O=C1c2cccc3c([N+](=O)[O-])ccc(c23)C(=O)N1Cc1cccnc1`, the Potency was active: 4.47 µM.
In the case of `COc1cc(/C=N/NC(=O)c2ccccc2O)ccc1OC(=O)CC1SC(=O)NC1=O` (stereo not given), the Potency is reported as “inactive”.
For `Cc1ccccc1OC(=O)n1c(=S)oc2cc(Cl)ccc21`, the Potency was inconclusive: 35.5 µM [inhibitor, single point].
In the case of `O=C(NNc1nc2ccccc2o1)c1ccccc1`, the Potency is reported as inconclusive: 10 µM [inhibitor, partial curve, poor fit].
For `CCOC(=O)N1CCN(C(=O)CSCc2ccccc2)CC1`, the Potency was inconclusive: 0.447 µM [activator, full curve, poor fit].
`O=C(CSc1nc2ccccc2c(=O)[nH]1)c1ccc(O)cc1O` was tested, and the Potency was inconclusive: 35.5 µM [activator, single point].
With `CC1CC(NC(=O)Cc2ccc(Br)cc2)CC(C)(C)C1` (stereo not given) the Potency was inconclusive: 35.5 µM [activator, single point].
`c1ccc(Cc2nnc(Sc3ccccc3)c3ccccc23)cc1` was tested, and the Potency was “inactive”.
`O=C(NCC1CCN(Cc2ccc(F)cc2)CC1)C1CCCN(c2ncnc3c2nc2n3CCCCC2)C1` (stereo not given) was tested, and the Potency was “inactive”.
`Cc1cnc(NC2=NCCC2)s1` was tested, and the Potency was active: 7.08 µM.
In the case of `Cc1ccc(NC(=S)Nc2cccnc2)c(S(=O)(=O)N2CCCCC2)c1`, the Potency is reported as inconclusive: 35.5 µM [inhibitor, single point].
For `CN(CCO)c1cc(Sc2nc3ccccc3s2)c2nonc2c1[N+](=O)[O-]`, the Potency was active: 11.2 µM.
`Cc1ccc([N+](=O)[O-])cc1NC(=O)CCc1ccccc1` was tested, and the Potency was “inactive”.
`O=S(=O)(c1cccc(-c2nnc(SCc3nc4ccccc4s3)o2)c1)N1CCOCC1` was tested, and the Potency was “inactive”.
In the case of `CC(C)=CCN1CCN(Cc2nc(-c3ccccc3)cs2)CC1CCO` (stereo not given), the Potency is reported as “inactive”.
In the case of `O=C(O)/C=C\c1cn(-c2ccccc2)nc1-c1cc2ccccc2o1`, the Potency is reported as inconclusive: 10 µM [activator, partial curve].
In the case of `S=C(NCc1ccc2[nH]c3c(c2c1)CCCC3)Nc1ccccc1`, the Potency is reported as active: 1.78 µM.
`Cc1cccc(-n2c(SCc3cc(=O)n4ccsc4n3)nc3ccccc32)c1` was tested, and the Potency was inconclusive: 0.355 µM [activator, full curve].
In the case of `COC1(OC)C(/C=C/c2ccc(Cl)cc2)C(C#N)(C#N)C1(OC)OC` (stereo not given), the Potency is reported as inconclusive: 12.6 µM [inhibitor, single point].
In the case of `Cc1cccc(-n2ncc3c(N(C)C4CCCCC4)ncnc32)c1`, the Potency is reported as inconclusive: 0.0631 µM [inhibitor, partial curve].
`CC(=O)c1ccc(OCCCOc2cccc3cccnc23)cc1` was tested, and the Potency was inconclusive: 35.5 µM [activator, single point].
`CCCCOc1ccc(N2C(=O)CC(N(O)c3ccccc3)C2=O)cc1` (stereo not given) was tested, and the Potency was inconclusive: 11.2 µM [activator, single point].
In the case of `COCC(C)N1CCC(Oc2ccc(C(=O)NCc3ccccn3)cc2)CC1` (stereo not given), the Potency is reported as “inactive”.
For `O=C(NNC1=C(C(=O)C(F)(F)F)CCC1)c1ccccc1Cl`, the Potency was active: 5.62 µM.
